Results of single-concentration screens

Amino acid sequences for entries named in this document (tags omitted). Residues count along the entry.
UniProt A4I591, 1-473: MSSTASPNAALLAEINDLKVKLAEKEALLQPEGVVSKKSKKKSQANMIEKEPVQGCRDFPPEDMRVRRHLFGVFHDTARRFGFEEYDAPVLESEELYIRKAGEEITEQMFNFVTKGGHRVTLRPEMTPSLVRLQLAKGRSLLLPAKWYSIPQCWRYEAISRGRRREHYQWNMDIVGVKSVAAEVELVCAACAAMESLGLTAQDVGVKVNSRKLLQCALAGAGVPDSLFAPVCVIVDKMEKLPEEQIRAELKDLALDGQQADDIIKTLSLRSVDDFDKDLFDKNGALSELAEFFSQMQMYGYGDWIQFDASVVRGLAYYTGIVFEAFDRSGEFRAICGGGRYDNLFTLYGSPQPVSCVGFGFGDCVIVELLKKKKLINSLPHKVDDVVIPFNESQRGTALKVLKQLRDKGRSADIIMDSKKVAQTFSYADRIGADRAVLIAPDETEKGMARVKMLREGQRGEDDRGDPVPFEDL

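Histidine-tRNA ligase, Leishmania infantum (UniProt A4I591). Enzyme assay of histidyl-tRNA synthetase; the read-out is not stated. Compounds at 30 µM. Higher reads as stronger inhibition (inferred: compounds with an IC50 in retests scored well above the rest). The assay is labelled LdHisRS but filed under L. infantum. About 69,000 compounds were tested under these conditions; 0.6% (about 410) showed 50% or more at least once.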

Results are given as percent effect.
How 0% and 100% were set is not recorded. Most values in the screen are low, and negative values occur.
Compounds were drawn at random from those tested, without regard to their results.

SMILES: CCNc1cc2c(nn1)CCN(C(=O)Cc1c(C)nn(C)c1C)C2
effect: 11.61

SMILES: CN1CCc2ncc(CNC(=O)c3cccn3C)n2CC1
effect: 22.86

SMILES: O=C(NCc1cccs1)C1CN(C(=O)c2cccs2)CC12CCOCC2 (stereo not given)
effect: 16.98

SMILES: Cc1cc(C)c2c(OCC(=O)NC(C)C)nn(C)c2n1
effect: 9.615

SMILES: CC(C)(Oc1ccc2c(c1)CCCC2=O)C(=O)NCc1ccco1
effect: 21.13

SMILES: O=C1NCCN1C1CCN(Cc2ccccn2)CC1
effect: 9.615

SMILES: Cc1nc(CN2CCN(C(=O)CCc3ccco3)CC2)cs1
effect: -14.04

SMILES: CCc1cc(CN(C)C(=O)c2cnon2)on1
effect: 18.57

SMILES: CC(CCN1CCC(n2cc(CCO)nn2)CC1)c1ccccc1 (stereo not given)
effect: 22.38

SMILES: O=C(c1ncoc1-c1ccco1)N1CCCN(c2ncccn2)CC1
effect: 0

SMILES: O=C1C(N2CCN(c3ccc(O)cc3)CC2)CCN1C1CCOCC1 (stereo not given)
effect: 33.33

SMILES: O=C1N(CCc2ccccc2)CCCC1(O)CNCc1ccc(F)cc1 (stereo not given)
effect: 1.639

SMILES: COc1ccc(C(=O)N2CCC3(CC2)c2ccccc2[C@@H](N)[C@@H]3O)cc1
effect: 15.09

SMILES: CC(NC(=O)c1ccc(CS(C)(=O)=O)o1)c1ccc(F)c(F)c1 (stereo not given)
effect: 16.88

SMILES: Cc1nn(C)c(C)c1CCC(=O)N(C)Cc1ccc(C#N)cc1
effect: 15.93

SMILES: CCNc1cc2c(nn1)CCN(C(=O)Cc1ccc(C)s1)C2
effect: 25.89

SMILES: O=C(NCC1CCC1)c1ccnc(-n2ccnc2)c1
effect: 17.7

SMILES: CCCn1nc(-c2nc(COC)no2)ccc1=O
effect: 7.895

SMILES: CN(Cc1ccccc1)C(=O)CCN1C[C@H](C2CC2)[C@@H](N(C)C)C1
effect: 9.79

SMILES: Cc1noc(Cl)c1CCC(=O)N1CCN(c2ncccn2)CC1
effect: -13.64

SMILES: O=C(CCc1nc2ccccc2[nH]1)Nc1ccc2c(c1)OCC(=O)N2
effect: 32.58

SMILES: O=C(NCc1ccccn1)NCC(O)c1ccccc1C(F)(F)F (stereo not given)
effect: 15

SMILES: CSCC(CCO)NC(=O)Nc1cc(F)ccc1C (stereo not given)
effect: 15.66

SMILES: CC(C)(NS(C)(=O)=O)c1nc(-c2ccncc2)no1
effect: -64.84

SMILES: Cc1nc(C2CCCN2C(=O)c2ccc3c(c2)nc(C)n3C)no1 (stereo not given)
effect: 1.724

SMILES: Cc1cc(O)nc(C2CN(CCC(F)(F)F)CCO2)n1 (stereo not given)
effect: 8.966

SMILES: O=C1CN(S(=O)(=O)c2ccc(F)cc2)CC(O)CN1CC1CC1 (stereo not given)
effect: 16.33

SMILES: COCc1ccc(C(=O)N2CCCN(C(=O)OCC(C)C)CC2)cc1
effect: -1.075

SMILES: Cc1cc(-c2ccccc2C(=O)O)nc(C2CCCCN2C)n1 (stereo not given)
effect: 12.37

SMILES: O=C(CN1CCCC1Cn1cccn1)NC1CCOCC1 (stereo not given)
effect: 9.615

SMILES: CNC(=O)c1cn[nH]c1C1(C)CCCN(Cc2ccccc2OC)C1 (stereo not given)
effect: 5.263

SMILES: CN(C)CC(C)(C)Cn1cnc(-c2ccccc2)c1-c1cccc(O)c1
effect: 17.24

SMILES: CC1=C(C(=O)NCCc2n[nH]c3c2CCCC3)C(C)NC(=O)N1 (stereo not given)
effect: 15.96

SMILES: OCc1ccc(-c2nccn2CCC2=CCCCC2)o1
effect: 14.47

SMILES: FC(F)(F)C1CCc2nnc(CNCc3ccsc3)n2C1 (stereo not given)
effect: 18.87

SMILES: CC1=CC(C)(C)N(CN2C(=O)c3ccccc3C2=O)c2ccccc21
effect: -7.463

SMILES: Cn1cnc2c1C(COCC1CCOCC1)CN(c1ncccn1)C2 (stereo not given)
effect: 0

SMILES: CC(=O)Nc1nc(C(=O)NCc2ccc(N3CCOCC3)nc2)cs1
effect: 11.3

SMILES: Cc1ccc(CC(=O)N2CCCC(c3cc(C(N)=O)[nH]n3)C2)cn1 (stereo not given)
effect: 7.339

SMILES: c1cc(CN(CCCn2ccnc2)Cc2ccoc2)ccn1
effect: 16.3

SMILES: CN(C)C(=O)CNC(=O)c1nc(C2CC2)n(-c2ccccc2Cl)n1
effect: 16.67

SMILES: O=C1CCCN1CCCNCc1cc(O)c2cccc(F)c2n1
effect: 9.735

SMILES: CN(Cc1ccccc1OC(F)(F)F)C(=O)C1CC1
effect: 0

SMILES: COCCN1CCCC(Cc2cnc(-c3c(C)nn(C)c3C)cn2)C1 (stereo not given)
effect: 14.18

SMILES: CCOc1ccc(C(C)NC(=O)N2CCC(C(N)=O)CC2)cc1OC (stereo not given)
effect: 23.08

SMILES: O=C(O)c1cc(/C=C/c2ccccc2)ncn1
effect: 22.32

SMILES: O=C(CCCNC(=O)C1CCCO1)Nc1ccc(Cl)cc1 (stereo not given)
effect: -1.099

SMILES: CCCc1cnc(C)nc1N1CCC(Cn2cc(CO)nn2)CC1
effect: 8.197

SMILES: CC1CN(C(=O)c2ccc(C(N)=O)cc2)c2ccc(F)cc2O1 (stereo not given)
effect: 14.58

SMILES: Nc1nc(Sc2cccs2)cc(N2CC[C@H](CO)[C@H](O)C2)n1
effect: 14.75

SMILES: Cn1cncc1CN1CCOC(Cc2ccccc2)C1 (stereo not given)
effect: 12.77

SMILES: COCC(C)NC(=O)NCCc1cccc(OC)c1O (stereo not given)
effect: 19.33

SMILES: CC(C)CNC(=O)c1ccc2nnc(C3CCN(S(C)(=O)=O)C3)n2c1 (stereo not given)
effect: 3.922

SMILES: Cc1nn(CC(C)C)c(N(C)C)c1CNCc1ccnn1C
effect: 10.71

SMILES: CN(C)c1ccc(C(O)CNS(=O)(=O)C2CC2)cc1 (stereo not given)
effect: 0

SMILES: Nc1cc(-c2cc(O)cc(C(=O)O)c2)c2cc[nH]c2n1
effect: 31.91

SMILES: CC(C)(C)c1cc(C[C@H]2CNCC[C@H]2CC(=O)NCc2cccs2)no1
effect: 13.89

SMILES: Cc1nnn2c1COCC(CNC(=O)c1ccc[nH]1)C2 (stereo not given)
effect: 5.455

The last 4 entries again:

SMILES,effect
CN(C)c1ccc(C(O)CNS(=O)(=O)C2CC2)cc1 (stereo not given),0
Nc1cc(-c2cc(O)cc(C(=O)O)c2)c2cc[nH]c2n1,31.91
CC(C)(C)c1cc(C[C@H]2CNCC[C@H]2CC(=O)NCc2cccs2)no1,13.89
Cc1nnn2c1COCC(CNC(=O)c1ccc[nH]1)C2 (stereo not given),5.455

Measurements from “University of Dundee, Small-Polar-MMV Screening Library” (2021), ChEMBL document CHEMBL3988442.